{"source": "the supplement of paper PMC8728848", "assay_in_all_cases": "glycan array binding signal (z-score within array); higher = stronger binding", "details_in_all_cases": "glycan notation: IUPAC condensed, linker removed", "key": {"[1]": {"target": "Fuc(a1-2)[GalNAc(b1-3)]Gal", "how_it_was_run": "(§1)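 Glycan array data came from 3228 arrays in the Consortium for Functional Glycomics database, and only arrays with an available protein sequence were kept. Glycan names were put into IUPAC-condensed notation, and columns mapping to the same glycan were averaged. The binding signal is a within-array Z-score, averaged across arrays of one protein sequence run at different concentrations or buffers and across linkers. A negative Z-score can be read as non-binding.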"}, "[2]": {"target": "Fuc(a1-3)GlcNAc", "how_it_was_run": "as §1"}, "[3]": {"target": "Fuc(a1-3)[Gal(b1-4)]Glc6S", "how_it_was_run": "as §1"}, "[4]": {"target": "Fuc(a1-3)[Gal(b1-4)]GlcNAc", "how_it_was_run": "as §1"}, "[5]": {"target": "Fuc(a1-3)[Gal(b1-4)]GlcNAc(b1-2)Man", "how_it_was_run": "as §1"}, "[6]": {"target": "Fuc(a1-3)[Gal(b1-4)]GlcNAc(b1-2)Man(a1-3)[Fuc(a1-3)[Gal(b1-4)]GlcNAc(b1-2)Man(a1-6)]Man(b1-4)GlcNAc(b1-4)GlcNAc", "how_it_was_run": "as §1"}, "[7]": {"target": "Fuc(a1-3)[Gal(b1-4)]GlcNAc(b1-2)Man(a1-3)[Fuc(a1-3)[Gal(b1-4)]GlcNAc(b1-2)Man(a1-6)]Man(b1-4)GlcNAc(b1-4)[Fuc(a1-6)]GlcNAc", "how_it_was_run": "as §1"}, "[8]": {"target": "Fuc(a1-3)[Gal(b1-4)]GlcNAc(b1-3)Gal(b1-3)[Fuc(a1-4)]GlcNAc", "how_it_was_run": "as §1"}, "[9]": {"target": "Fuc(a1-3)[Gal(b1-4)]GlcNAc(b1-3)Gal(b1-4)[Fuc(a1-3)]GlcNAc", "how_it_was_run": "as §1"}, "[10]": {"target": "Fuc(a1-3)[Gal(b1-4)]GlcNAc(b1-3)Gal(b1-4)[Fuc(a1-3)]GlcNAc(b1-3)Gal(b1-4)[Fuc(a1-3)]GlcNAc", "how_it_was_run": "as §1"}, "[11]": {"target": "Fuc(a1-3)[Gal(b1-4)]GlcNAc(b1-3)GalNAc", "how_it_was_run": "as §1"}, "[12]": {"target": "Fuc(a1-3)[Gal(b1-4)]GlcNAc(b1-6)GalNAc", "how_it_was_run": "as §1"}, "[13]": {"target": "Fuc(a1-3)[Gal(b1-4)]GlcNAc(b1-6)[Gal(b1-3)GlcNAc(b1-3)]Gal(b1-4)Glc", "how_it_was_run": "as §1"}, "[14]": {"target": "Fuc(a1-3)[Gal(b1-4)]GlcNAc6S", "how_it_was_run": "as §1"}, "[15]": {"target": "Fuc(a1-3)[Gal3S(b1-4)]Glc", "how_it_was_run": "as §1"}, "[16]": {"target": "Fuc(a1-3)[Gal3S(b1-4)]GlcNAc", "how_it_was_run": "as §1"}, "[17]": {"target": "Fuc(a1-3)[Gal3S(b1-4)]GlcNAc6S", "how_it_was_run": "as §1"}, "[18]": {"target": "Fuc(a1-3)[GalNAc(b1-4)]GlcNAc", "how_it_was_run": "as §1"}, "[19]": {"target": "Fuc(a1-3)[GalNAc(b1-4)]GlcNAc6S", "how_it_was_run": "as §1"}, "[20]": {"target": "Fuc(a1-4)GlcNAc", "how_it_was_run": "as §1"}, "[21]": {"target": "Fuc(b1-3)GlcNAc", "how_it_was_run": "as §1"}, "[22]": {"target": "Gal(a1-2)Gal", "how_it_was_run": "as §1"}, "[23]": {"target": "Gal(a1-3)Gal", "how_it_was_run": "as §1"}, "[24]": {"target": "Gal(a1-3)Gal(b1-3)GlcNAc", "how_it_was_run": "as §1"}, "[25]": {"target": "Gal(a1-3)Gal(b1-3)GlcNAc(b1-2)Man", "how_it_was_run": "as §1"}, "[26]": {"target": "Gal(a1-3)Gal(b1-3)GlcNAc(b1-2)Man(a1-3)[Gal(a1-3)Gal(b1-3)GlcNAc(b1-2)Man(a1-6)]Man(b1-4)GlcNAc(b1-4)GlcNAc", "how_it_was_run": "as §1"}, "[27]": {"target": "Gal(a1-3)Gal(b1-3)GlcNAc(b1-3)GalNAc", "how_it_was_run": "as §1"}, "[28]": {"target": "Gal(a1-3)Gal(b1-3)GlcNAc(b1-6)GalNAc", "how_it_was_run": "as §1"}, "[29]": {"target": "Gal(a1-3)Gal(b1-3)[Fuc(a1-4)]GlcNAc(b1-2)Man(a1-3)[Gal(a1-3)Gal(b1-3)[Fuc(a1-4)]GlcNAc(b1-2)Man(a1-6)]Man(b1-4)GlcNAc(b1-4)GlcNAc", "how_it_was_run": "as §1"}, "[30]": {"target": "Gal(a1-3)Gal(b1-4)Glc", "how_it_was_run": "as §1"}, "[31]": {"target": "Gal(a1-3)Gal(b1-4)GlcNAc", "how_it_was_run": "as §1"}, "[32]": {"target": "Gal(a1-3)Gal(b1-4)GlcNAc(b1-2)Man", "how_it_was_run": "as §1"}, "[33]": {"target": "Gal(a1-3)Gal(b1-4)GlcNAc(b1-2)Man(a1-3)[Gal(a1-3)Gal(b1-4)GlcNAc(b1-2)Man(a1-6)]Man(b1-4)GlcNAc(b1-4)GlcNAc", "how_it_was_run": "as §1"}, "[34]": {"target": "Gal(a1-3)Gal(b1-4)GlcNAc(b1-3)GalNAc", "how_it_was_run": "as §1"}, "[35]": {"target": "Gal(a1-3)Gal(b1-4)GlcNAc(b1-6)GalNAc", "how_it_was_run": "as §1"}, "[36]": {"target": "Gal(a1-3)Gal(b1-4)[Fuc(a1-3)]GlcNAc", "how_it_was_run": "as §1"}, "[37]": {"target": "Gal(a1-3)Gal(b1-4)[Fuc(a1-3)]GlcNAc(b1-2)Man(a1-3)[Gal(a1-3)Gal(b1-4)[Fuc(a1-3)]GlcNAc(b1-2)Man(a1-6)]Man(b1-4)GlcNAc(b1-4)GlcNAc", "how_it_was_run": "as §1"}}, "note": "Some of the results follow."}
{"binder": "AT5G24760(45) (Arabidopsis thaliana), Q8LEB2 (protein) MSASSSSFEQPQVITCNAAVAWRAGEPLVMEEVEVSPPQPLEIRIKVVCTSLCRSDLSAWESQSLLPRIFGHEAAGIVESIGEGVTEFEKGDHVLAVFTGECGSCRHCISGKSNMCQVLGMERKGLMHSDQKTRFSIKGKPVYHYCAVSSFSEYTVVHSGCAVKVDPLAPLHKICLLSCGVAAGLGAAWNVADVQKGSSVVIFGLGTVGLSVAQGAKLRGAAQILGVDINPAKAEQAKTFGVTDFINSNDLSEPIPQVIKRMTGGGADFSFECVGDTGIATTALQSCSDGWGMTVTLGVPKAKPEVSAHYGLFLSGKSLKGTLFGGWKPKSDLPSLIDKYMNKEIMIDEFITHNLSFDEINKAFVLMREGKCLRCVLHMPK", "values": [{"measurement": "glycan array binding signal (z-score)", "setting": "[1]", "value": -0.293}, {"measurement": "glycan array binding signal (z-score)", "setting": "[2]", "value": 0.356}, {"measurement": "glycan array binding signal (z-score)", "setting": "[3]", "value": -0.176}, {"measurement": "glycan array binding signal (z-score)", "setting": "[4]", "value": 0.196}, {"measurement": "glycan array binding signal (z-score)", "setting": "[5]", "value": -0.611}, {"measurement": "glycan array binding signal (z-score)", "setting": "[6]", "value": 0.158}, {"measurement": "glycan array binding signal (z-score)", "setting": "[7]", "value": 0.387}, {"measurement": "glycan array binding signal (z-score)", "setting": "[8]", "value": -0.49}, {"measurement": "glycan array binding signal (z-score)", "setting": "[9]", "value": 0.161}, {"measurement": "glycan array binding signal (z-score)", "setting": "[10]", "value": -0.824}, {"measurement": "glycan array binding signal (z-score)", "setting": "[11]", "value": 2.37}, {"measurement": "glycan array binding signal (z-score)", "setting": "[12]", "value": 1.65}, {"measurement": "glycan array binding signal (z-score)", "setting": "[13]", "value": 0.059}, {"measurement": "glycan array binding signal (z-score)", "setting": "[14]", "value": 0.092}, {"measurement": "glycan array binding signal (z-score)", "setting": "[15]", "value": -0.582}, {"measurement": "glycan array binding signal (z-score)", "setting": "[16]", "value": 1.93}, {"measurement": "glycan array binding signal (z-score)", "setting": "[17]", "value": -0.218}, {"measurement": "glycan array binding signal (z-score)", "setting": "[18]", "value": 1.18}, {"measurement": "glycan array binding signal (z-score)", "setting": "[19]", "value": -0.19}, {"measurement": "glycan array binding signal (z-score)", "setting": "[20]", "value": 1.12}, {"measurement": "glycan array binding signal (z-score)", "setting": "[21]", "value": 1.27}, {"measurement": "glycan array binding signal (z-score)", "setting": "[22]", "value": 1.02}, {"measurement": "glycan array binding signal (z-score)", "setting": "[23]", "value": 0.612}, {"measurement": "glycan array binding signal (z-score)", "setting": "[24]", "value": 7.36}, {"measurement": "glycan array binding signal (z-score)", "setting": "[25]", "value": 0.008}, {"measurement": "glycan array binding signal (z-score)", "setting": "[26]", "value": 1.07}, {"measurement": "glycan array binding signal (z-score)", "setting": "[27]", "value": 0.234}, {"measurement": "glycan array binding signal (z-score)", "setting": "[28]", "value": -0.449}, {"measurement": "glycan array binding signal (z-score)", "setting": "[29]", "value": 1.46}, {"measurement": "glycan array binding signal (z-score)", "setting": "[30]", "value": -0.124}, {"measurement": "glycan array binding signal (z-score)", "setting": "[31]", "value": -0.393}, {"measurement": "glycan array binding signal (z-score)", "setting": "[32]", "value": 0.617}, {"measurement": "glycan array binding signal (z-score)", "setting": "[33]", "value": 0.041}, {"measurement": "glycan array binding signal (z-score)", "setting": "[34]", "value": -0.254}, {"measurement": "glycan array binding signal (z-score)", "setting": "[35]", "value": -0.426}, {"measurement": "glycan array binding signal (z-score)", "setting": "[36]", "value": -0.432}, {"measurement": "glycan array binding signal (z-score)", "setting": "[37]", "value": -0.89}]}
